From PMC3474823
These are yes or no findings as the source states them, for the method shown. Binding seen in cells or lysates may run through a third protein. Some results given as binding are weak or reduced against the parent protein; the word gives no strength. For part of these data: Where a sequence is shown, tags or fusion partners need not be part of it.

The chains behind the UniProt entries cited, without tags or fusion partners. Where a name states a change or a piece, a line headed by the entry shows the natural chain unless it says otherwise. A line that says so, or that is headed by a name, gives the form on record, which may keep a tag or linker.
endogenous Nf1 (neurofibromin) (P21359-2, form named): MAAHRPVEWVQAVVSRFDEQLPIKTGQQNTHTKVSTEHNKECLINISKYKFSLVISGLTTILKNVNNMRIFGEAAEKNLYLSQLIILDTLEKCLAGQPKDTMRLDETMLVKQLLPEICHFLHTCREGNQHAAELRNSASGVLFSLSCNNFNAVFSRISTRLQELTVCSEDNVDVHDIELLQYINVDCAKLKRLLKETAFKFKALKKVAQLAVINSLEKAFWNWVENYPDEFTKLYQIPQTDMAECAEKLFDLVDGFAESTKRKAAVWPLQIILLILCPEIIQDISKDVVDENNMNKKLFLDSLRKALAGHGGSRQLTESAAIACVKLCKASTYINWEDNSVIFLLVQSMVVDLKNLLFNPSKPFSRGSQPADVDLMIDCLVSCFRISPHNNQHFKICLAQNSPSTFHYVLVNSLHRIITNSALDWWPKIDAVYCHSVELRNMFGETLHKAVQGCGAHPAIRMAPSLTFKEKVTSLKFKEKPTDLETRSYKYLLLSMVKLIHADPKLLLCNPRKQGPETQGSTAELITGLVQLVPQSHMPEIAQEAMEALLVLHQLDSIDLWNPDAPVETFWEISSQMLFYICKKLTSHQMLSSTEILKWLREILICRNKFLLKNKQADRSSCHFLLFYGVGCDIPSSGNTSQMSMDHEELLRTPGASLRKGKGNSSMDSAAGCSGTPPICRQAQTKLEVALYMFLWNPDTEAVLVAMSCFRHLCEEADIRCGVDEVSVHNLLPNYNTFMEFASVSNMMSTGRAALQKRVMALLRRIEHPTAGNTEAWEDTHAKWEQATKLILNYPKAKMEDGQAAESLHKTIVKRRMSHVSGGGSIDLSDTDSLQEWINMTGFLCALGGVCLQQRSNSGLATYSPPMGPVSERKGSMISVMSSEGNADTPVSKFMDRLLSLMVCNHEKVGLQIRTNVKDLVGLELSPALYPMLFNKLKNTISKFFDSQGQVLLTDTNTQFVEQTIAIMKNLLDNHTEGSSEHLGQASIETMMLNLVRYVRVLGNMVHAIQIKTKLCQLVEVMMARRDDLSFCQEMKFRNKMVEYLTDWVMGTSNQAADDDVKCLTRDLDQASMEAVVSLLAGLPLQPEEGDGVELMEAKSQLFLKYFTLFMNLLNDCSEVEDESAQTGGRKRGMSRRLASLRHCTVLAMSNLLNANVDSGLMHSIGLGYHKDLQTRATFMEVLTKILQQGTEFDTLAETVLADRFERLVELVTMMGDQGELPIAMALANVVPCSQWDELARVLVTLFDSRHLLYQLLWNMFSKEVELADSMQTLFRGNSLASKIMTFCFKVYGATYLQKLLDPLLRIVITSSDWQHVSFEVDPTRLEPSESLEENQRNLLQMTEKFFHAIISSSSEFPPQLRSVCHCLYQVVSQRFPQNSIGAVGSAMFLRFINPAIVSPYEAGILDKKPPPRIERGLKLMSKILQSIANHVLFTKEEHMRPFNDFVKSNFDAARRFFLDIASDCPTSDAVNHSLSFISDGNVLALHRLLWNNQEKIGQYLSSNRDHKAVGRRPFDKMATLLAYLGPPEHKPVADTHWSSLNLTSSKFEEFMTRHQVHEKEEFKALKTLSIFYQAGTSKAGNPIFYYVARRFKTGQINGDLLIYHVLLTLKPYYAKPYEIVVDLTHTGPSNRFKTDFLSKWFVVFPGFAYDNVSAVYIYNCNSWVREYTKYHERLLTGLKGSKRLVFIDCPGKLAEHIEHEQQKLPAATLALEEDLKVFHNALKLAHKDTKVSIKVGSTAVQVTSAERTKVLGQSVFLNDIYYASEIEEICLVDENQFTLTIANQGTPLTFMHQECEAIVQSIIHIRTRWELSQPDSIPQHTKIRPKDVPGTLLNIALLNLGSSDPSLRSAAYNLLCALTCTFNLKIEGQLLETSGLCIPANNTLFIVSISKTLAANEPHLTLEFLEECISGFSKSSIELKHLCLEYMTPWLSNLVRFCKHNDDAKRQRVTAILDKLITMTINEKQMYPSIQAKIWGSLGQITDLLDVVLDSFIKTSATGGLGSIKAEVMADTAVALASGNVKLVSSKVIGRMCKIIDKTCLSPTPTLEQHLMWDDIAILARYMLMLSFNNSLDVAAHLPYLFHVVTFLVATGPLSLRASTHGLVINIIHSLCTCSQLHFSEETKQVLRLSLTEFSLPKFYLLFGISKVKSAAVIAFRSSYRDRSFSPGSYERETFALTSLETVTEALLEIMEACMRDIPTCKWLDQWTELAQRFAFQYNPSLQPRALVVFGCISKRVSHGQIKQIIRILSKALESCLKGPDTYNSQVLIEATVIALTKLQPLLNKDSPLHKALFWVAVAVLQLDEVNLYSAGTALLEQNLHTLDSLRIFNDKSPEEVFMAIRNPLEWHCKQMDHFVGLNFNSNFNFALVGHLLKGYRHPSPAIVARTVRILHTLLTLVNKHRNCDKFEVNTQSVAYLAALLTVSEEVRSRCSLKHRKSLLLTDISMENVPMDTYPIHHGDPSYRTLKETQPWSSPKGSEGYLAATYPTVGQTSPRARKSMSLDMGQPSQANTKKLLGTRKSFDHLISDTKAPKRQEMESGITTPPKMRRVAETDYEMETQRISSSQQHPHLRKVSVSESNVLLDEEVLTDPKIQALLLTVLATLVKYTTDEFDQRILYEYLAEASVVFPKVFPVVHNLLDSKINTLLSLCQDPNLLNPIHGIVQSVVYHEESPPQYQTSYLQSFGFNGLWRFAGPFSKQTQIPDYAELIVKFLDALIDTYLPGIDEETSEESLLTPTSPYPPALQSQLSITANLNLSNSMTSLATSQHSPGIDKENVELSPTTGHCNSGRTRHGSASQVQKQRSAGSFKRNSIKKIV

Tests used:
[1] = target: endogenous Nf1 (neurofibromin) (human (endogenous in HEK-293)) (UniProt P21359); test: co-IP; endogenous proteins of HEK-293 lysate; anti-Nf1 antibodies coupled to sepharose beads; endogenous LIMK2 detected by immunoblot
[2] = target: HA-LIMK2 (pcDNA3-(HA)2-LIMK2) (UniProt P53671); test: co-IP; HEK-293 cells transfected with HA-LIMK2 (WT, TA or TEE); anti-HA immunoprecipitation; endogenous Nf1 detected by immunoblot
[3] = target: T1, HA-LIMK2-T505A (pcDNA3-(HA)2-LIMK2-T505A) (UniProt P53671); test: as above
T1 sequence: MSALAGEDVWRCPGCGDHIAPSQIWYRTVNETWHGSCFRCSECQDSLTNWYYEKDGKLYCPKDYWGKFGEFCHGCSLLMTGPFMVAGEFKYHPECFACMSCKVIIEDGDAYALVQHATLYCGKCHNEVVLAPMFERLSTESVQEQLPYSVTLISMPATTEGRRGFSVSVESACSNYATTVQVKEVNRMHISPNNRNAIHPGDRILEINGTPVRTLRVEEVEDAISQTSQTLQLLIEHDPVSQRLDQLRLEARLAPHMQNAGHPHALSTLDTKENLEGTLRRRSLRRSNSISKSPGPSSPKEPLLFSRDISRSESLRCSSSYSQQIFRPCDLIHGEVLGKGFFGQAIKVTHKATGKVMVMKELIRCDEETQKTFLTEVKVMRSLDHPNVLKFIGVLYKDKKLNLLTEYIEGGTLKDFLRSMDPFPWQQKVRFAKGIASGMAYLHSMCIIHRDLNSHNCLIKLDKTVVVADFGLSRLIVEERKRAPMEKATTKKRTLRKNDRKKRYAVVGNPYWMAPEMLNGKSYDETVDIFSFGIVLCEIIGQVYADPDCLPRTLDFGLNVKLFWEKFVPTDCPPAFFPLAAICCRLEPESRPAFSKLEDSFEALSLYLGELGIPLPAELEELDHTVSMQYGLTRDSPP

Substance	binding [1]	binding [2]	binding [3]
endogenous LIMK2 (from UniProt P53671 1-638) (enzyme)	binds		
endogenous Nf1 (neurofibromin) (from UniProt P21359-2 1-2818)		binds	binds
